Laboratory results as given in PubChem BioAssay AID2662 (National Center for Advancing Translational Sciences (NCATS), 2010).
In all, about 290,000 compounds went through this assay and about 110 (0.038%) were called active. Inconclusive results, whose numbers are uncertain, are shown with a selection of clear calls. The call rests on the fitted dose curve; in most records, active means well fitted inhibition curve with a large enough effect in the polarisation, with a control signal flat (not every such curve was filed as active); inconclusive means small, poorly fitted or top-dose-only effect, or effect the other way, or a change in a side signal; inactive means no such curve, though single readings can be large or run the other way; the % refers to the polarisation. A potency beside an inconclusive call is a rough fit, not a confirmed value. “Side channel” marks fits to a control or component signal instead of the main read-out.

By UniProt entry, the sequences of proteins in these tests, tags left out.
UniProt Q03164, whole entry, looked up: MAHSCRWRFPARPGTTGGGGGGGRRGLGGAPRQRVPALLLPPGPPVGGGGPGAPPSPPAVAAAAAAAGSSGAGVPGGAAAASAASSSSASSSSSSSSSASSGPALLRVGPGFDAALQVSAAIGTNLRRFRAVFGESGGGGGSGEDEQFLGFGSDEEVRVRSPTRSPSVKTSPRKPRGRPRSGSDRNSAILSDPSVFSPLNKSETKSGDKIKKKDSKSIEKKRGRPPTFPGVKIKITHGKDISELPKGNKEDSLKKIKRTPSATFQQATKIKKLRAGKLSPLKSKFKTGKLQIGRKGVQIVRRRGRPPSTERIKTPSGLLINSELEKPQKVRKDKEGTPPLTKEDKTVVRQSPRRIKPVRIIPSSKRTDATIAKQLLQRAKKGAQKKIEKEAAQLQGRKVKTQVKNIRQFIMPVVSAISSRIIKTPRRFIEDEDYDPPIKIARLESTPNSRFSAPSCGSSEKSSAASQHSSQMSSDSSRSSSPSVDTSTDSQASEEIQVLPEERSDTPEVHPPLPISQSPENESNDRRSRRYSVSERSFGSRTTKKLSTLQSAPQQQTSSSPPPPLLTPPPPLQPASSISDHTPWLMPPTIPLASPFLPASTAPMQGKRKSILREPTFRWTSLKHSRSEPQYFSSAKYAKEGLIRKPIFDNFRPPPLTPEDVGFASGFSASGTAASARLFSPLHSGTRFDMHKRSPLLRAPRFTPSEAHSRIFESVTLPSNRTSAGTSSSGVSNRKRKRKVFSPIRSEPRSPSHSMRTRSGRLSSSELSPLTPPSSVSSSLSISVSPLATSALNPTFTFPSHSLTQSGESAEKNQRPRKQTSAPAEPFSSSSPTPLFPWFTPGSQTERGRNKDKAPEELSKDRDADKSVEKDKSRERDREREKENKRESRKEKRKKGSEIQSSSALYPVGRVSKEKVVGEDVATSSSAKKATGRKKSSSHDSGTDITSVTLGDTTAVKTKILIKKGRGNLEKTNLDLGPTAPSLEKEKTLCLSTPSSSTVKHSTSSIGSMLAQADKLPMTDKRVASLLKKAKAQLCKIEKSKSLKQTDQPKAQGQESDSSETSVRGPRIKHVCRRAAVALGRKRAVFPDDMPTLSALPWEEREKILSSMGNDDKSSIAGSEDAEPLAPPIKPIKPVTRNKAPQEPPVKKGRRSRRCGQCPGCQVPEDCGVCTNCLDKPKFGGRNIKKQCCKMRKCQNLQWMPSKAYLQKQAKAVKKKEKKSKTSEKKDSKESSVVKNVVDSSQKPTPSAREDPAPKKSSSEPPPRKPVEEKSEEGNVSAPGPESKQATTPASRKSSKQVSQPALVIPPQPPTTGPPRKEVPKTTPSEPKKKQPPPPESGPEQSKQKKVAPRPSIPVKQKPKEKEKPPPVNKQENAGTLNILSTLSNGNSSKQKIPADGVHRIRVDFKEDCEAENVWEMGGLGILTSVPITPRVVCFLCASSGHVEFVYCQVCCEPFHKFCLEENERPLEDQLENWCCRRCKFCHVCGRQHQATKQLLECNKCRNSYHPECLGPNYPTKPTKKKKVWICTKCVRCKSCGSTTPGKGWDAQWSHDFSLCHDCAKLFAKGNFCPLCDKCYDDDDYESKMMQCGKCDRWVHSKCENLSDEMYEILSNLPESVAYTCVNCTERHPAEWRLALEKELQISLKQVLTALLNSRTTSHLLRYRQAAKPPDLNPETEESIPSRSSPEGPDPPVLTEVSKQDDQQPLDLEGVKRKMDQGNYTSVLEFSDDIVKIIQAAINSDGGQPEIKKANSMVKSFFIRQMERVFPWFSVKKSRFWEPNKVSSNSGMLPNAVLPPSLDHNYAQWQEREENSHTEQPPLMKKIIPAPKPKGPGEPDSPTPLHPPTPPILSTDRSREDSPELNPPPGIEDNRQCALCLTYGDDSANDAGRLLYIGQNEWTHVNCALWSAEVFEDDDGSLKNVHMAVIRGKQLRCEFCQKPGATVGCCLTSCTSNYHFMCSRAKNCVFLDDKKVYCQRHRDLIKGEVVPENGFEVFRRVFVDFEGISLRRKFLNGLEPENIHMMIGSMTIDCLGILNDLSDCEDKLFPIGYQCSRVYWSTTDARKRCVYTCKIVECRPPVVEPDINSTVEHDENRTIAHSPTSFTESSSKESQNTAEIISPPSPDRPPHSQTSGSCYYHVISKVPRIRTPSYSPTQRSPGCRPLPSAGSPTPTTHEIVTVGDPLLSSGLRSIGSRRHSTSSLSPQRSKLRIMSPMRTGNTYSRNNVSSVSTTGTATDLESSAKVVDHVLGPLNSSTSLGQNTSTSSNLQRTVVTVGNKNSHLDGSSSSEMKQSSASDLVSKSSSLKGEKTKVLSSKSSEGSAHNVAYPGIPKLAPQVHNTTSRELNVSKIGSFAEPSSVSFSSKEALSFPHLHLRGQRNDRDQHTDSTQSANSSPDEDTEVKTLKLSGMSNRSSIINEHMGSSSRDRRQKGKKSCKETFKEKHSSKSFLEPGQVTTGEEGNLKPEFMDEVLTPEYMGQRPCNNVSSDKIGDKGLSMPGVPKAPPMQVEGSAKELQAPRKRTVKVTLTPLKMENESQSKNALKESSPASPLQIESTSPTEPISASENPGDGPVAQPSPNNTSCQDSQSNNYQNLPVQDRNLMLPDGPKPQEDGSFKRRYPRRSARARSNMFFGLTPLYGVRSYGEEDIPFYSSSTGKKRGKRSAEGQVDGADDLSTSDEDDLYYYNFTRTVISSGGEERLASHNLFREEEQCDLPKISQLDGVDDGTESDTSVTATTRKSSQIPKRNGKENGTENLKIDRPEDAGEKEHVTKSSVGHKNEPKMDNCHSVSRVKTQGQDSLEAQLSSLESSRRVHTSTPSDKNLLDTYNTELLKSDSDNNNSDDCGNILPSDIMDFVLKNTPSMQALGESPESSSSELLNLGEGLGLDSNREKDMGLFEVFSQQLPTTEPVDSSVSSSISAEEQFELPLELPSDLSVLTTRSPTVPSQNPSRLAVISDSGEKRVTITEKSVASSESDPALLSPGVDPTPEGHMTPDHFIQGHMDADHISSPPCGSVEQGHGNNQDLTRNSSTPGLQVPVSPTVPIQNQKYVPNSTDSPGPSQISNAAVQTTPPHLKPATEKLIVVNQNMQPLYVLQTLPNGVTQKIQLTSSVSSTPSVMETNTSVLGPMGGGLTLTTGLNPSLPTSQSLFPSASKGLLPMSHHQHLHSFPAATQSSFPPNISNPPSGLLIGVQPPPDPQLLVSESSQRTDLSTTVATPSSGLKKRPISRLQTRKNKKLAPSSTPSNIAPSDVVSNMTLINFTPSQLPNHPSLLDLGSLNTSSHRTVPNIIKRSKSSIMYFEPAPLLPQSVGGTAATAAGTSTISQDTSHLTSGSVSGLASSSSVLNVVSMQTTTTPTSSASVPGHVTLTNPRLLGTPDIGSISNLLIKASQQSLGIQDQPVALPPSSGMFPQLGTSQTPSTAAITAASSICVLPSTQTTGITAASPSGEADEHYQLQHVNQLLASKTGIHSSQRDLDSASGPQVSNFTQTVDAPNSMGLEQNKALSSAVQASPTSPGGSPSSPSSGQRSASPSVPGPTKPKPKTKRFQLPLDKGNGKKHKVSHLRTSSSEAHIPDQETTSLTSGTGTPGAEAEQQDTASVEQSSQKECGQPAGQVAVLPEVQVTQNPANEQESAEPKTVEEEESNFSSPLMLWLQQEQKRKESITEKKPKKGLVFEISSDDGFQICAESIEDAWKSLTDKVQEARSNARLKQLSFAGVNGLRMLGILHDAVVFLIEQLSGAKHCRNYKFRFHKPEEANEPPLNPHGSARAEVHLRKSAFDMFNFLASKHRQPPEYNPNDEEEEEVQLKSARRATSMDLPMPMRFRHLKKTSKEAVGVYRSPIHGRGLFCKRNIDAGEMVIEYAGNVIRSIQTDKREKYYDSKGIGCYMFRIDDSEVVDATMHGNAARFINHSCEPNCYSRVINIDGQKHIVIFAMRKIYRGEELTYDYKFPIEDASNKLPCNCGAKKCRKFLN

molecular target: Histone-lysine N-methyltransferase 2A (Homo sapiens) (UniProt Q03164); experiment: qHTS Fluorescence Polarization Assay for Inhibitors of MLL CXXC domain - DNA interaction; conditions: MLL-CXXC / FITC-HOXA9 DNA fluorescence polarization; series mostly up to 115 µM
How it was run: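 Fluorescence polarization: 7 uM MLL-CXXC (stock) preincubated 5 min with compounds, then 50 nM fluorescein-HOX-A9 DNA (stock) added; 30 min ambient. Buffer 50 mM Tris-HCl pH 7.5, 50 mM NaCl, 1 mM DTT, 0.05% BSA.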
Potency means the concentration at half of the fitted maximal effect.

Row | SMILES | Potency
1 | Cc1ccc(-c2c[n+](CC(=O)OCc3ccccc3)c3n2CCC3)cc1 | inconclusive: 89.1 µM [fluorescent, side channel, single point]
2 | COC(=O)c1ccc(NC(=O)C2CC(=O)N(c3cc(C)ccc3C)C2)cc1 (stereo unspecified) | inactive
3 | O=C(COC(=O)c1cc([N+](=O)[O-])ccc1NCCO)NCc1cccs1 | inconclusive: 22.4 µM [fluorescent, side channel, partial curve]
4 | C=CCC(CC=C)(NC(=O)c1ccccc1C(=O)O)c1ccccc1 | inconclusive: 89.1 µM [fluorescent, side channel, single point]
5 | O=C(CSc1nnc(NC(=O)C2CC(=O)N(c3ccc(F)cc3)C2)s1)NCC1CCCO1 (stereo unspecified) | inconclusive: 7.94 µM [fluorescent, side channel, partial curve, poor fit]
6 | Cc1cccc(C)c1OCC(=O)NCc1ccccc1 | inconclusive: 70.8 µM [inhibitor, single point]
7 | CCN(CC)CCNC(=O)c1ccc(NC(=O)c2ccc(Cl)c(S(=O)(=O)Nc3ccccc3OC)c2)cc1 | inconclusive: 39.8 µM [quencher, side channel, single point]
8 | CC(=O)Nc1ccccc1NC(=O)c1ccc(C)cc1C | inconclusive: 35.5 µM [fluorescent, side channel, single point]
9 | Cc1nnsc1S(=O)c1ccccc1Cl (stereo unspecified) | inconclusive: 63.1 µM [fluorescent, side channel, partial curve]
10 | CCOc1ccc2oc(C(=O)OCC(=O)NC(=O)NC3CCCC3)c(C)c2c1 | inactive
11 | Cc1ccc(NC(=O)NNC(=O)c2cc3ccccc3cc2O)c(C)c1 | inconclusive: 10 µM [fluorescent, side channel, single point]
12 | CN(C(=O)C1CCC(=O)N(Cc2cccc(F)c2)C1)C1CCCCC1 (stereo unspecified) | inconclusive: 3.16 µM [fluorescent, side channel, full curve]
13 | O=C(NCCc1ccccc1)C1CCC(=O)N1C1CCCC1 (stereo unspecified) | inactive
14 | NC(=O)c1nn(-c2ccccc2)c(=O)cc1O | inconclusive: 7.94 µM [inhibitor, single point]
15 | COC(=O)c1c(C)nn(-c2ccc(F)c(Cl)c2)c1-c1cc(C)on1 | inactive
16 | O/C=c1\ccc2cccc3nc(C(F)(F)F)nc1c23 | inconclusive: 14.1 µM [fluorescent, side channel, full curve]
17 | CC1(C)CC2(CC(c3ccc(F)cc3)c3ccc(O)cc3O2)NC(=S)N1 (stereo unspecified) | inactive
18 | O=C(O)c1ccc(-c2nc3ccccc3[nH]2)cc1 | inconclusive: 1.12 µM [fluorescent, side channel, partial curve, poor fit]
19 | O=C(OCC(=O)N1N=C(c2ccc(Cl)cc2)CC1c1ccco1)c1ccccc1O (stereo unspecified) | inactive
20 | CCn1c(C)c(C)c2cc(C(=O)NCCN3CCOCC3)ccc21 | inconclusive: 7.94 µM [quencher, side channel, partial curve]
21 | COc1ccc(C)cc1NC(=O)NCCCCc1ccccc1 | inconclusive: 15.8 µM [quencher, side channel, single point]

An excerpt of these results, as comma-separated lines.
Row,SMILES,Potency
6,Cc1cccc(C)c1OCC(=O)NCc1ccccc1,"inconclusive: 70.8 µM [inhibitor, single point]"
7,CCN(CC)CCNC(=O)c1ccc(NC(=O)c2ccc(Cl)c(S(=O)(=O)Nc3ccccc3OC)c2)cc1,"inconclusive: 39.8 µM [quencher, side channel, single point]"

The list goes on.

Row | SMILES | Potency
22 | COc1ccc(C(=O)CNc2cccc(F)c2)cc1 | inconclusive: 31.6 µM [inhibitor, single point]
23 | CCc1ccc(-c2nnn(CCC#N)n2)cc1 | inconclusive: 15.8 µM [fluorescent, side channel, full curve, poor fit]
24 | O=S(=O)(Cc1ccccc1)Oc1ccccc1 | inconclusive: 63.1 µM [fluorescent, side channel, single point]
25 | O=C(Nc1ccc(Cl)cc1)c1csc(Cc2ccccc2)n1 | inconclusive: 39.8 µM [inhibitor, single point]
26 | COc1ccc(-c2nnc3sc(-c4ccco4)nn23)cc1OC | inactive
27 | Oc1ccc(Br)cc1/C=N/Nc1ccccn1 | inconclusive: 0.891 µM [quencher, side channel, full curve]
28 | CC(=O)N1c2ccc(Cl)cc2C2C=CCC2C1c1cccc2ccccc12 (stereo unspecified) | inactive
29 | CC1=NOC(=O)/C1=C\c1ccc(-c2cc(Cl)ccc2Cl)o1 | inconclusive: 89.1 µM [inhibitor, single point]
30 | COc1ccccc1OCCC(=O)OCC(=O)NCc1ccc(Cl)cc1 | inconclusive: 89.1 µM [fluorescent, side channel, single point]
31 | COCCN(CCOC)Cc1c(O)ccc2c1O/C(=C\c1ccco1)C2=O | inconclusive: 31.6 µM [fluorescent, side channel, partial curve]
32 | CC1=CC(C)(C)N2C(=O)C3(N=C(N)NC(Nc4ccccc4)=N3)c3cc(C)cc1c32 (stereo unspecified) | inconclusive: 31.6 µM [quencher, side channel, single point]
33 | O=C(COC(=O)/C=C/c1nc2ccccc2s1)Nc1cccc2ccccc12 | inconclusive: 2 µM [fluorescent, side channel, full curve]
34 | O=C(O)/C=C/C(=O)Nc1ccc(SC(F)(F)C(F)(F)C(F)(F)F)cc1 | inconclusive: 50.1 µM [inhibitor, single point]
35 | Cn1ccnc1C1CCCCN1Cc1nc(-c2ccc3c(c2)OCO3)no1 (stereo unspecified) | inconclusive: 14.1 µM [inhibitor, partial curve]
36 | O=C(O)C1Nc2c(C(F)(F)F)ccc(Cl)c2C2C=CCC12 (stereo unspecified) | inconclusive: 31.6 µM [fluorescent, side channel, partial curve]
37 | O=C(CSc1nnc(-c2ccco2)c(-c2ccco2)n1)Nc1ccccc1 | inconclusive: 70.8 µM [inhibitor, single point]
38 | O=C(NCc1ccco1)c1cc(S(=O)(=O)N2CCCc3ccccc32)ccc1Cl | inconclusive: 7.08 µM [quencher, side channel, full curve]
39 | O=C(CN1C(=O)S/C(=C\c2ccccc2)C1=O)Nc1cc([N+](=O)[O-])ccc1O | inconclusive: 44.7 µM [inhibitor, partial curve]
40 | COc1ccc(C)cc1Nc1n[n+](-c2ccccc2)c(-c2cc([N+](=O)[O-])cc(OC)c2O)s1 | inconclusive: 31.6 µM [fluorescent, side channel, partial curve]
41 | CN(C)c1ccc(/C=C(\C#N)c2ccccn2)cc1 | inconclusive: 31.6 µM [fluorescent, side channel, partial curve]
42 | COC(=O)COc1c(Cl)cc(Cl)c2ccc(C)nc12 | inconclusive: 1.41 µM [fluorescent, side channel, full curve]

Row | SMILES | Potency
43 | CC(C)OC(=O)CN1C(=O)S/C(=C/c2ccc(N3CCCCC3)o2)C1=O | inconclusive: 44.7 µM [fluorescent, side channel, partial curve]
44 | CCn1c(/N=C/c2ccc(OC)cc2O)nc2ccccc21 | inconclusive: 35.5 µM [inhibitor, single point]
45 | CC(=O)N(Cc1ccccc1)c1ccccc1C(=O)O | inconclusive: 89.1 µM [quencher, side channel, single point]
46 | CCN(CC)c1ccc(/C=C2\C(=N)N3N=C(CC(=O)N4CCOCC4)SC3=NC2=O)cc1 | inconclusive: 14.1 µM [fluorescent, side channel, partial curve]
47 | O=C(c1ccc2ccccc2c1)N1CCN(c2ccc(O)cc2)CC1 | inactive
48 | COc1cc(NC(=O)CC(C)n2ccnc2)cc(OC)c1 (stereo unspecified) | inconclusive: 7.94 µM [fluorescent, side channel, single point]
49 | CCCCC(=O)NC(c1ccccc1Cl)c1ccc2cccnc2c1O (stereo unspecified) | inactive
50 | CCCN1CCc2c(sc(NC(=O)c3ccc(S(=O)(=O)N4CCN(C(=O)OCC)CC4)cc3)c2C(N)=O)C1 | inconclusive: 89.1 µM [fluorescent, side channel, single point]
51 | CN(C)c1nc2sc3c(c2c(=O)n1C)CC(C)(C)OC3 | inconclusive: 1 µM [quencher, side channel, full curve, poor fit]
52 | COc1ccc(-c2ccc([C@H]3[C@H]4C=CC[C@@H](C)[C@@H]4C(=O)N3Cc3ccccc3)c(F)c2)cc1 | inactive
53 | Cc1n[nH]c(=S)n(/N=C/c2ccccn2)c1=O | inconclusive: 35.5 µM [inhibitor, single point]
54 | S=c1[nH]c2ccccc2c2ccccc12 | inconclusive: 70.8 µM [inhibitor, single point]
55 | O=C(CNC(=O)c1ccccc1F)OCC(=O)N1CCCCC1 | inconclusive: 79.4 µM [fluorescent, side channel, single point]
56 | Cc1[nH][nH]c(=O)c1C(c1ccc(-c2ccc(Cl)c(C(=O)O)c2)o1)c1c(C)[nH][nH]c1=O | inconclusive: 25.1 µM [inhibitor, partial curve]
57 | CCCn1c(N)c(N2CCCCC2)c(=O)n(CC(=O)Nc2ccc(OC(F)(F)F)cc2)c1=O | inconclusive: 70.8 µM [fluorescent, side channel, single point]
58 | O=C(NNC1=Nc2cccc3cccc1c23)c1ccc(Br)cc1 | inconclusive: 7.94 µM [fluorescent, side channel, full curve]
59 | COc1cc(CNCCc2c[nH]c3ccccc23)cc(Cl)c1OCC(N)=O | inconclusive: 8.91 µM [inhibitor, single point]
60 | COC(=O)c1ccc(OC(=O)c2ccco2)cc1 | inactive
61 | COc1ccc2nc(SCc3ccccc3)nc(C)c2c1 | inconclusive: 70.8 µM [quencher, side channel, single point]
